Data as given in PubChem BioAssay AID1259308 (NCATS, 2017)

Purpose: 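Genes whose loss raises luciferase production in HEK293 cells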 (primary screen)
System: human HEK293 embryonic kidney cells stably expressing firefly luciferase (HEK-CMV-Luc2-Hygro)
Reagents: single siRNA against human genes, 0.8 pmol siRNA per well
Duration: 72 h
Measured: 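Luciferase light (ONE-Glo) measured on one replicate plate set and viability (CellTiter-Glo) on the other, scaled to a negative control siRNA, with robust z-scores and luciferase per cell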
Reading the numbers: total luciferase, z-score and total luciferase, % of control: higher = more reporter protein produced
Rule for the call: 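Active when the median/MAD z-score for overall luciferase is greater than 3; a gene was taken forward for validation with new siRNAs if at least two of its three siRNAs passed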
Calls: active = raised luciferase; inactive = no rise
Shown is a random part of about 59,000 reagents tested. About 1,510 of them (2.6%) were called active. 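Calls use total luciferase alone and ignore viability, so some active siRNAs may act by altering cell number.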 The numbers tell different reagents against one gene apart. Further read-outs or replicates are left out here. No sequences are given here.

{"target": "PICK1 (GeneID 9463)", "siRNA no.": 1, "total luciferase, z-score": -1.35, "total luciferase, % of control": 55, "call": "inactive"}
{"target": "PICK1 (GeneID 9463)", "siRNA no.": 2, "total luciferase, z-score": 0.604, "total luciferase, % of control": 93.9, "call": "inactive"}
{"target": "PICK1 (GeneID 9463)", "siRNA no.": 3, "total luciferase, z-score": -0.402, "total luciferase, % of control": 73.9, "call": "inactive"}
{"target": "ARIH2 (GeneID 10425)", "siRNA no.": 1, "total luciferase, z-score": 0.653, "total luciferase, % of control": 94.9, "call": "inactive"}
{"target": "ARIH2 (GeneID 10425)", "siRNA no.": 2, "total luciferase, z-score": -0.805, "total luciferase, % of control": 65.9, "call": "inactive"}
{"target": "ARIH2 (GeneID 10425)", "siRNA no.": 3, "total luciferase, z-score": 0.743, "total luciferase, % of control": 96.7, "call": "inactive"}
{"target": "C11orf21 (GeneID 29125)", "siRNA no.": 1, "total luciferase, z-score": 1.04, "total luciferase, % of control": 103, "call": "inactive"}
{"target": "C11orf21 (GeneID 29125)", "siRNA no.": 2, "total luciferase, z-score": -0.196, "total luciferase, % of control": 78, "call": "inactive"}
{"target": "C11orf21 (GeneID 29125)", "siRNA no.": 3, "total luciferase, z-score": -0.124, "total luciferase, % of control": 79.4, "call": "inactive"}
{"target": "OR6C3 (GeneID 254786)", "siRNA no.": 1, "total luciferase, z-score": 2.33, "total luciferase, % of control": 128, "call": "inactive"}
{"target": "OR6C3 (GeneID 254786)", "siRNA no.": 2, "total luciferase, z-score": -0.15, "total luciferase, % of control": 78.9, "call": "inactive"}
{"target": "OR6C3 (GeneID 254786)", "siRNA no.": 3, "total luciferase, z-score": 0.493, "total luciferase, % of control": 91.7, "call": "inactive"}
{"target": "CIROZ (GeneID 148345)", "siRNA no.": 1, "total luciferase, z-score": -1.46, "total luciferase, % of control": 52.9, "call": "inactive"}
{"target": "CIROZ (GeneID 148345)", "siRNA no.": 2, "total luciferase, z-score": 0.928, "total luciferase, % of control": 100, "call": "inactive"}
{"target": "CIROZ (GeneID 148345)", "siRNA no.": 3, "total luciferase, z-score": 0.234, "total luciferase, % of control": 86.5, "call": "inactive"}
{"target": "HPF1 (GeneID 54969)", "siRNA no.": 1, "total luciferase, z-score": 0.208, "total luciferase, % of control": 86, "call": "inactive"}
{"target": "HPF1 (GeneID 54969)", "siRNA no.": 2, "total luciferase, z-score": -1.05, "total luciferase, % of control": 61, "call": "inactive"}
{"target": "HPF1 (GeneID 54969)", "siRNA no.": 3, "total luciferase, z-score": 0.408, "total luciferase, % of control": 90, "call": "inactive"}
{"target": "SDF4 (GeneID 51150)", "siRNA no.": 1, "total luciferase, z-score": 0.383, "total luciferase, % of control": 89.5, "call": "inactive"}
{"target": "SDF4 (GeneID 51150)", "siRNA no.": 2, "total luciferase, z-score": 0.204, "total luciferase, % of control": 85.9, "call": "inactive"}
{"target": "SDF4 (GeneID 51150)", "siRNA no.": 3, "total luciferase, z-score": 1.28, "total luciferase, % of control": 107, "call": "inactive"}

Reformatted: 2 of the entries above.
{"target":"C11orf21 (GeneID 29125)","siRNA no.":3,"total luciferase, z-score":-0.124,"total luciferase, % of control":79.4,"call":"inactive"}
{"target":"OR6C3 (GeneID 254786)","siRNA no.":1,"total luciferase, z-score":2.33,"total luciferase, % of control":128,"call":"inactive"}
